According to patent US20030153623A1, “Solid preparation containing sparingly soluble NSAIDs” (Yamanouchi Pharmaceutical Co., Ltd., priority 1998, published 2003):

Test: Dissolution test, puddle method, first solution pH 1.2, various chemicals (Test Example 5)
Assay type: physicochemical
Settings: raw material of the chemical; dissolved for 5 minutes; first solution (pH 1.2) 500 ml; 50 rpm; a dose of each chemical
Experimental: Samples 8-1 and 8-9, and raw materials of various chemicals as the control, were examined by the puddle method in an dissolution test according to the Japanese Pharmacopoeia, and the amount of ibuprofen (μg/ml) dissolved for 5 minutes in the test was determined. The test solution used was the first solution (pH 1.2) in a disintegration test in the Japanese Pharmacopoeia, the amount of the dissolution medium was 500 ml, and the number of puddle revolutions was 50 rpm. Each sample contains a dose of each chemical.

Dissolved amount, Control: 5.92 µg/mL
SMILES: COc1ccc2cc([C@H](C)C(=O)O)ccc2c1 [Naproxen]
